Measured values reported in article PMC11758948.
No constants are given. Whether binding was seen depends on the method and setting. Binding seen in cells or lysates may run through a third protein. Some binding calls cover weakened binding; strength is not graded here. Tags and fused reporters may be left off the sequences shown.

The chains behind the UniProt entries cited, without tags or fusion partners.
UniProt P84095: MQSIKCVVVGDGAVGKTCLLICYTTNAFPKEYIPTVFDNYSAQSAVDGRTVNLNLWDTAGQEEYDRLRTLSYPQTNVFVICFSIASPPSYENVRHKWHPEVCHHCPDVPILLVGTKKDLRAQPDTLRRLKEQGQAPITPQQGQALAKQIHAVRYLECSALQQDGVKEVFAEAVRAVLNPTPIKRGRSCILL

Biological target: T1, GST-ELMO2, RhoG-binding domain-included N-terminal region (aa 1-362) of ELMO2 fused with glutathione S-transferase (UniProt Q96JJ3)
T1 sequence: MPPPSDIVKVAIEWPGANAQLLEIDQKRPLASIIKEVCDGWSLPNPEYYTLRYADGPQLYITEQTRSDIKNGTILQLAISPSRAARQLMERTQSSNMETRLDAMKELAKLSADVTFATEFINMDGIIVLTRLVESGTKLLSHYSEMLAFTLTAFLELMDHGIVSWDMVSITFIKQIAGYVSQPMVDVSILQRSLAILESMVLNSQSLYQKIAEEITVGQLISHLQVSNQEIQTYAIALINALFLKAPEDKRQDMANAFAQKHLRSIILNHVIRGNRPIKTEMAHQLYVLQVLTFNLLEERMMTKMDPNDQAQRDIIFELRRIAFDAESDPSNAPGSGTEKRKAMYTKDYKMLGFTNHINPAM
Experiment: pull-down; GST-ELMO2 (aa 1-362) on glutathione sepharose 4B beads incubated with supernatants of HeLa S3/WT, /S41A and /S41E cell lysates (Dox 48 h) at 4 °C for 1 h; 50 mM Hepes-NaOH pH 7.4, Triton X-100, 300 mM NaCl, MgCl2, 1 mM DTT; beads washed 4 times; bound proteins by Western blot; only the target purified

- binding: binds
Substance: RhoG (from UniProt P84095 1-191)
